Results deposited as PubChem BioAssay AID504764 (Drosophila RNAi Screening Center, 2011).
Test: 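Knock-downs that raise or lower a Notch target reporter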 (primary screen). System: Drosophila Kc167 cells. Knock-down reagent: long dsRNA against Drosophila genes. Duration: about 5 days (4 days dsRNA, then 24 h after transfection). Treatment: transfection of constitutively active membrane-tethered Notch lacking the extracellular domain, read 24 h later. Measured: 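Light from a Notch-responsive E(spl)m3 luciferase reporter under active Notch, with control-promoter and no-Notch reporter wells to normalise; raw counts from paired wells a and b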. Reading the numbers: induced reporter light, run 1, well a and induced reporter light, run 1, well b: higher = more light from the Notch target reporter with active Notch; control promoter light, run 1, well a and control promoter light, run 1, well b: higher = more light from the viral control promoter (cell number, transfection, viability); uninduced reporter light, run 1, well a: higher = more light from the Notch target reporter without active Notch. Active means: 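Hit if the duplicate-averaged log2 ratio of induced to control-promoter light gives a plate-wise z beyond ±2, or induced to uninduced beyond ±1.8; weak-control or discordant-duplicate wells dropped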. Meaning of the calls: active = modifier hit (raised or lowered Notch signal); inactive = not a hit.
The deposit covers about 22,000 reagents; shown is an unselected part of those that have a named target and a result. In the full data, 403 (1.9%) got an active call. 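Unnormalised raw counts per well; ratio z-scores behind the hit calls and whether each hit raises or lowers signal are not deposited.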 Reagents against one gene are numbered here. Names joined by + are all predicted targets of the reagent. The record does not give: the amount of reagent.

Gene,dsRNA no.,"induced reporter light, run 1, well a","induced reporter light, run 1, well b","control promoter light, run 1, well a","control promoter light, run 1, well b","uninduced reporter light, run 1, well a",call
Bug22 (Basal body up regulated gene 22),1,98420,1.30e5,54055,72635,17345,inactive
dany (distal antenna-young),1,30400,41435,34170,27745,2345,inactive
Cdc16 (Cell division cycle 16),1,1.07e5,1.18e5,1.29e5,1.37e5,9585,inactive
borr (borealin-related),1,52210,52235,57660,42815,6445,inactive
CG31680,1,,,,,,inactive
st (scarlet),1,1.30e5,1.47e5,96420,1.32e5,9660,inactive
Grl36b (Gustatory receptor-like 36b),1,64965,69965,62460,59500,5660,inactive
CG18605,1,93760,66670,78105,67050,6700,inactive
CG12020,1,95640,1.07e5,1.51e5,1.73e5,8080,inactive
CG12432 (retired record),1,63630,68990,91230,79885,9040,inactive
CG8560,1,1.25e5,1.33e5,61395,30050,9765,inactive
Sac1 (Sac1 phosphatase),1,81460,98865,1.24e5,1.76e5,7105,inactive
HisRS (Histidyl-tRNA synthetase),1,67140,57725,79980,78570,9042,inactive
CG8813,1,2.34e5,2.04e5,1.94e5,1.93e5,15605,inactive
kek6 (kekkon 6),1,85515,99400,1.71e5,1.77e5,8230,inactive
CG14212,1,68445,77760,80870,1.00e5,9875,inactive
NetA (Netrin-A),1,67890,64830,1.08e5,76085,12738,inactive
CG11357,1,1.62e5,1.80e5,2.39e5,1.99e5,14020,inactive
CG6843,1,1.20e5,88680,1.68e5,1.16e5,7550,inactive
CG7142,1,1.89e5,1.59e5,2.06e5,2.00e5,12135,inactive
CG31869,1,1.07e5,1.06e5,59380,70565,13800,inactive
CG31869,2,93880,1.36e5,50840,69925,14865,inactive
alpha-Man-Ia (alpha-Mannosidase class I a),1,34490,28620,23180,20770,3895,inactive
alpha-Man-Ia (alpha-Mannosidase class I a),2,94140,94325,1.34e5,1.75e5,7900,inactive
alpha-Man-Ia (alpha-Mannosidase class I a),3,1.06e5,1.02e5,1.53e5,1.65e5,7935,inactive
alpha-Man-Ia (alpha-Mannosidase class I a),4,1.48e5,1.26e5,2.22e5,1.75e5,9380,inactive
Or65c (Odorant receptor 65c),1,,,,,,inactive
CG10660,1,1.25e5,97290,1.70e5,1.11e5,6765,inactive
Vlet (Valette),1,1.78e5,2.08e5,2.59e5,2.18e5,14820,inactive
CG3793,1,2.36e5,2.51e5,1.87e5,1.82e5,14905,inactive
REG (Proteasome regulator gamma),1,1.03e5,1.00e5,1.73e5,1.77e5,8050,inactive
ClpX (Caseinolytic protease chaperone subunit),1,1.07e5,1.16e5,92750,89385,6635,active
CG15531,1,1.15e5,1.38e5,1.70e5,1.59e5,11155,inactive
FER (FER tyrosine kinase),1,1.82e5,1.73e5,1.87e5,2.09e5,13220,inactive
FER (FER tyrosine kinase),2,61575,70920,74680,53250,3795,inactive
CG10164,1,2.05e5,1.89e5,2.70e5,3.00e5,11220,inactive
CG17290,1,72870,72410,78320,77840,6230,inactive
Sod2 (Superoxide dismutase 2 (Mn)),1,1.22e5,1.01e5,2.07e5,1.90e5,9095,inactive
CG46298,1,1.87e5,1.84e5,2.27e5,1.98e5,13745,inactive
CG5246,1,1.90e5,2.21e5,2.32e5,2.34e5,16370,inactive
eco (Establishment of cohesion),1,1.08e5,1.03e5,69255,33085,8978,inactive
Dus4 (Dihydrouridine synthase 4),1,2.10e5,2.08e5,1.92e5,1.79e5,17675,inactive
CG13858 (retired record),1,1.60e5,1.31e5,1.68e5,1.73e5,10880,inactive
CG13858 (retired record),2,1.39e5,1.66e5,1.58e5,1.55e5,11385,inactive
CG13858 (retired record),3,1.98e5,1.59e5,1.72e5,2.08e5,12320,inactive
CG13858 (retired record),4,1.66e5,1.48e5,2.09e5,1.74e5,10765,inactive
CG17570,1,86730,69810,63830,98335,9545,inactive
CG17570,2,49305,48335,51085,65935,2725,inactive
His-Psi:CR31616 + His-Psi:CR31615,1,91745,79080,69455,69910,8215,inactive
kune (kune-kune),1,1.45e5,1.36e5,1.62e5,1.49e5,9825,inactive
